In this test the test system is B6C3F1 mice, ip Sarcoma M5076, median survival T/C. Briefly: NCI In Vivo Anticancer Drug Screen. Data for tumor model Sarcoma M5076 (intraperitoneal) in B6C3F1 mice. The note with it: T/C endpoint: median survival time, higher T/C = longer survival. An outline of the steps:
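Survival measured in treated (T) and vehicle control (C) mice with transplantable tumour; result given as T divided by C.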

The mark [1] stands for this setting: dose: 200.0 mg/kg/injection, schedule: Q04DX004 (ip), vehicle: suspension in saline.
Setting [2] is: dose: 50.0 mg/kg/injection, schedule: Q04DX004 (ip), vehicle: saline with Tween-80.
[3] abbreviates: dose: 100.0 mg/kg/injection, schedule: Q04DX004 (ip), vehicle: saline with Tween-80.
Where [4] appears, read: dose: 200.0 mg/kg/injection, schedule: Q04DX004 (ip), vehicle: saline with Tween-80.
Setting [5] is: dose: 100.0 mg/kg/injection, schedule: Q04DX004 (ip), vehicle: suspension in saline.
The mark [6] stands for this setting: dose: 12.5 mg/kg/injection, schedule: Q04DX004 (ip), vehicle: saline.
Where [7] appears, read: dose: 100.0 mg/kg/injection, schedule: Q04DX004 (ip), vehicle: saline.
[8] abbreviates: dose: 200.0 mg/kg/injection, schedule: Q04DX004 (ip), vehicle: saline.
[9] abbreviates: dose: 400.0 mg/kg/injection, schedule: Q04DX004 (ip), vehicle: saline with Tween-80.

Experimental findings from PubChem BioAssay AID292 (DTP/NCI, 2004) are described below.

The list does not hold the whole screen: it is rich in T/C values a quarter to a half above the control, in often repeated tests (any T/C) and in doses without a T/C. Other doses and runs of a compound stand elsewhere. T/C gives the treated animals as a percentage of the vehicle group. Some doses have a count of surviving animals in place of a T/C: the source holds a T/C of zero for them, seemingly a mark for toxic or unscored doses. Some survivor counts are full or nearly so, which does not show that the dose was tolerated: survival well below the control is almost never listed, so the zero probably covers shortened survival too. Survivors were counted at the toxicity check, usually on the fifth day, unless a day is given; later deaths do not show. Schedules are NCI's codes, read here as Q, the interval in days (D) or hours (H), X, the number of doses. Some entries hold several experiments; the values are given in rising order. For survival time, this PubChem deposit counts one and a half times the control or more as active, and values a quarter to a half above the control carry no call in these data; other NCI protocols may use other cut-offs. Some T/C values carry the count of animals alive at the toxicity check (mostly the fifth day); where none is given, no animal had died by that day.

`COc1cc(C(CC(C)=O)c2cc3c(cc2OC(C)=O)OCO3)cc(OC)c1OC` (stereo not drawn) (tested in a mixture with another compound): the survivor count is recorded as 6 of 10 on day 14 (dose: 125.0 mg/kg/injection, schedule: Q04DX004 (ip), vehicle: saline with Tween-80) and 2 of 10 on day 14 (dose: 208.33 mg/kg/injection, schedule: Q04DX004 (ip), vehicle: saline with Tween-80).

For the compound `O=S(O)Cc1ccccc1CSSSCc1ccccc1CS(=O)O`, under setting [1], the survivor count is recorded as 9 of 10 on day 14.

Turning to `CCCCCCN1CCN(Cc2ccc(N(CC)CC)cc2)C(=O)C1=O`, where the note is “dose: 100.0 mg/kg/injection, schedule: Q04DX004 (ip), vehicle: Klucel (hydroxypropylcellulose) (HPC)”, the T/C is 131 % of control. The survivor count was 3 of 10 on day 14 (dose: 200.0 mg/kg/injection, schedule: Q04DX004 (ip), vehicle: Klucel (hydroxypropylcellulose) (HPC)) and 0 of 10 on day 14 (dose: 400.0 mg/kg/injection, schedule: Q04DX004 (ip), vehicle: Klucel (hydroxypropylcellulose) (HPC)).

On to `COc1cc([C@@H]2c3cc4c(cc3[C@@H](OC3OC5COC(C)OC5C(O)C3O)[C@H]3COC(=O)[C@H]23)OCO4)cc(OC)c1O` (stereo partly drawn), for which the T/C by setting is: (dose: 4.0 mg/kg/injection, schedule: Q04DX004 (ip), vehicle: saline) 126 and 141 % of control; (dose: 8.0 mg/kg/injection, schedule: Q04DX004 (ip), vehicle: saline) 131 % of control; (dose: 16.0 mg/kg/injection, schedule: Q04DX004 (ip), vehicle: saline) 142 % of control [9 of 10 alive on day 14]. The survivor count is 1 of 10 on day 14 and 5 of 10 on day 14 (dose: 64.0 mg/kg/injection, schedule: Q04DX004 (ip), vehicle: saline); 5 of 8 on day 17 (dose: 64.0 mg/kg/injection, schedule: Q04DX005 (ip), vehicle: saline); 0 of 10 on day 14 (dose: 128.0 mg/kg/injection, schedule: Q04DX004 (ip), vehicle: saline).

Consider `CCCCNP1(NCCCC)=NP(NCCCC)(NCCCC)=NP(NCCCC)(NCCCC)=NP(NCCCC)(NCCCC)=N1`, for which the survivor count reads like this: under setting [2], 1 of 10 on day 14; under setting [3], 2 of 10 on day 14; under setting [4], 1 of 10 on day 14.

In the case of `O=CC(S)CO` (stereo not drawn), under setting [5], the T/C is 132 % of control.

Turning to `c1ccc(-c2nc3cc4c(cc3n3cccc23)oc2ccccc24)cc1`, the survivor count reads like this: under setting [3], 10 of 10 on day 14; under setting [4], 8 of 10 on day 14.

Regarding `C[C@@]1(CO)[C@H](O)CC[C@@]2(C)[C@H]1CC[C@H]1C[C@@H]3C[C@@]12CC[C@@]3(O)COC(=O)CN`, the T/C is 128 % of control (dose: 5.0 mg/kg/injection, schedule: Q03HX027 (ip), vehicle: saline + alcohol); 127 % of control (dose: 15.0 mg/kg/injection, schedule: Q01DX009 (ip), vehicle: saline + alcohol); 127 % of control (dose: 20.0 mg/kg/injection, schedule: Q03HX027 (ip), vehicle: saline + alcohol); 126 % of control (dose: 30.0 mg/kg/injection, schedule: Q01DX009 (ip), vehicle: saline + alcohol); 136 % of control (dose: 33.3 mg/kg/injection, schedule: Q03HX027 (ip), vehicle: saline + alcohol); 131 % of control (dose: 40.0 mg/kg/injection, schedule: Q03HX027 (ip), vehicle: saline + alcohol). For the same compound, the T/C (dose: 60.0 mg/kg/injection, schedule: Q01DX009 (ip), vehicle: saline + alcohol) was 136 % of control. Besides, the survivor count was 0 of 10 on day 14 (dose: 80.0 mg/kg/injection, schedule: Q03HX027 (ip), vehicle: saline + alcohol); 5 of 10 on day 14 (dose: 150.0 mg/kg/injection, schedule: Q04DX004 (ip), vehicle: saline + alcohol); 0 of 10 on day 14 (dose: 240.0 mg/kg/injection, schedule: Q01DX009 (ip), vehicle: saline + alcohol); 0 of 10 on day 14 (dose: 300.0 mg/kg/injection, schedule: Q04DX004 (ip), vehicle: saline + alcohol).

Take `C/C(=N\NC(=O)c1ccccc1O)c1cccc(/C(C)=N/NC(=O)c2ccccc2O)n1`: the survivor count runs as follows: under setting [6], 10 of 10 on day 14; under setting [7], 7 of 10 on day 14; under setting [8], 0 of 10 on day 14; under setting [1], 5 of 10 on day 14. For the same compound, the T/C is 132 % of control (dose: 12.5 mg/kg/injection, schedule: Q04DX004 (ip), vehicle: suspension in saline) and 130 % of control (dose: 50.0 mg/kg/injection, schedule: Q04DX004 (ip), vehicle: suspension in saline).

Regarding `COc1ccc(C2NC(=S)NC(=O)C2C#N)cc1OC` (stereo not drawn), the survivor count (dose: 800.0 mg/kg/injection, schedule: Q04DX004 (ip), vehicle: Klucel (hydroxypropylcellulose) (HPC)) was 0 of 10 on day 14.

Turning to `CNC(=O)OCc1nc(SC)n(C)c1COC(=O)NC`, the T/C under setting [5] was 148 % of control. In addition, the survivor count was 1 of 10 on day 14 (dose: 400.0 mg/kg/injection, schedule: Q04DX004 (ip), vehicle: saline) and 0 of 10 on day 14 (dose: 400.0 mg/kg/injection, schedule: Q04DX004 (ip), vehicle: suspension in saline).

Regarding `COc1ccccc1N1C(=O)C(=O)C(C(C)=O)C1=O` (stereo not drawn), the survivor count (dose: 700.0 mg/kg/injection, schedule: Q04DX004 (ip), vehicle: Klucel (hydroxypropylcellulose) (HPC)) was 4 of 10 on day 14.

Turning to `CS(=O)(=O)CS(=O)(=O)OCCF`, the T/C is 128 and 130 % of control (dose: 6.25 mg/kg/injection, schedule: Q04DX004 (ip), vehicle: saline); 131 % of control (dose: 10.8 mg/kg/injection, schedule: Q04DX004 (ip), vehicle: saline); 144 % of control under setting [6]. Also, the survivor count by setting is: (dose: 50.0 mg/kg/injection, schedule: Q04DX004 (ip), vehicle: saline) 6 of 10 on day 14; (dose: 83.3 mg/kg/injection, schedule: Q04DX004 (ip), vehicle: saline) 3 of 10 on day 14; under setting [7], 0 of 10 on day 14 and 1 of 10 on day 14.

As to `NC(=O)c1ccc[n+](Cc2c(Cl)cccc2Cl)c1`, under setting [8], the survivor count was 0 of 10 on day 9.

Consider `S=c1sc2ccccc2n1CN1CCOCC1`, for which, under setting [9], the survivor count is 5 of 10 on day 14 and 6 of 10 on day 14.

As to `Oc1ccc(N=C2N=c3c(c4ccccc4c4ccccc34)=N2)c2ccccc12`, the survivor count is 10 of 10 on day 14 under setting [2]; 10 of 10 on day 14 under setting [3]; 10 of 10 on day 14 under setting [4]; 10 of 10 on day 14 under setting [9]; 8 of 10 on day 14 (dose: 800.0 mg/kg/injection, schedule: Q04DX004 (ip), vehicle: saline with Tween-80).
